According to paper PMC7031079, “ATBS1-INTERACTING FACTOR 2 negatively regulates dark- and brassinosteroid-induced leaf senescence through interactions with INDUCER OF CBF EXPRESSION 1” (Journal of Experimental Botany, 2019):
These are yes or no findings as the source states them, for the method shown. For some assays here: Binding seen in cells or lysates may run through a third protein. Some entries that bind do so weakly or less than the wild type. For some assays here: Sequences can lack the tags named with a protein.

Assays:
ICE1FL-myc = molecular target: T1, ICE1FL-myc (Arabidopsis thaliana, UniProt Q9LSE2 1-494); experiment: co-IP; co-infiltrated tobacco (N. benthamiana) leaves; total proteins immunoprecipitated with anti-myc antibody on Protein G magnetic beads; blots with anti-GFP and anti-myc
T1 sequence (looked up): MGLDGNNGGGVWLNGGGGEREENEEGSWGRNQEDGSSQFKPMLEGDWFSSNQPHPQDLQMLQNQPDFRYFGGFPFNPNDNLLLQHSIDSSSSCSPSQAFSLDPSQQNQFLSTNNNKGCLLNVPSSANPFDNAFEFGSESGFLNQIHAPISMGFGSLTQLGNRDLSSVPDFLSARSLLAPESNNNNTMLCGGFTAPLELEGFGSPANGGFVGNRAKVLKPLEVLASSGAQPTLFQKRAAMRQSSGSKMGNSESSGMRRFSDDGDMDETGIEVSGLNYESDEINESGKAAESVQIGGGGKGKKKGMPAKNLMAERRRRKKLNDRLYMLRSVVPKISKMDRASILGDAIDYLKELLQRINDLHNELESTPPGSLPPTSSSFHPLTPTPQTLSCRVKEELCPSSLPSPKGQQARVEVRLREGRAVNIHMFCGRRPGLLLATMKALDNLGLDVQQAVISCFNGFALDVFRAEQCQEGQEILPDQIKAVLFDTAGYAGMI

[1] = molecular target: T2, BIN2-myc (Arabidopsis thaliana) (UniProt Q39011); experiment: as above
T2 sequence: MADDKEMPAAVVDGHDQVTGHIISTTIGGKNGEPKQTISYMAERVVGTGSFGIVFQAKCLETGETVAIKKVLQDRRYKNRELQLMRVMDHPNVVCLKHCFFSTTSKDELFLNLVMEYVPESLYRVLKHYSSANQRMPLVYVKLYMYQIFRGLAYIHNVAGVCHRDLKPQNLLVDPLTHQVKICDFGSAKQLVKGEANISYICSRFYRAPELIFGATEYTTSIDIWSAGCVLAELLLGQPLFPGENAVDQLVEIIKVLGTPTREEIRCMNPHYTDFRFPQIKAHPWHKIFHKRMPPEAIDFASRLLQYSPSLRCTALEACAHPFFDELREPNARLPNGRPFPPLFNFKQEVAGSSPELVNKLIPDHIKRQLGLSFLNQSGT

[2] = molecular target: T3, ICE1FL-cCFP (Arabidopsis thaliana) (UniProt Q9LSE2); experiment: split reporter; BiFC with nYFP and cCFP fusions co-infiltrated by Agrobacterium into tobacco (N. benthamiana) leaves; epidermal cells seen by confocal microscopy after 36-48 h
T3 sequence: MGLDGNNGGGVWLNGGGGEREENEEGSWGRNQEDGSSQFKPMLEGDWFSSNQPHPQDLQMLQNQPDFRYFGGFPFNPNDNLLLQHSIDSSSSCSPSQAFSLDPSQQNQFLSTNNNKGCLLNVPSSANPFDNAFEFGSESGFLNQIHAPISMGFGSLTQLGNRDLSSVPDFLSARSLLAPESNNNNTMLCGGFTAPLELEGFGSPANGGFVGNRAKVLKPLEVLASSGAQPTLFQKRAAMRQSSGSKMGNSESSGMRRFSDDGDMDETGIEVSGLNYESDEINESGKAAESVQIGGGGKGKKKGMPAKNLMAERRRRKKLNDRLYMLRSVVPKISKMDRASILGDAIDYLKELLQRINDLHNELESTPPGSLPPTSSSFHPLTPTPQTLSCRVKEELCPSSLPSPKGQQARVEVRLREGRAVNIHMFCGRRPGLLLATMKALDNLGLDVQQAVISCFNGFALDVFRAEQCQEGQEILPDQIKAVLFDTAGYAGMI

[3] = molecular target: T4, full-length protein of ICE1 (ICE1FL-pGBKT7) (Arabidopsis thaliana) (UniProt Q9LSE2); experiment: two-hybrid; pGBKT7 and pGADT7 constructs co-transformed into S. cerevisiae AH109; beta-galactosidase activity with chlorophenol red-beta-D-galactopyranoside as substrate
T4 sequence: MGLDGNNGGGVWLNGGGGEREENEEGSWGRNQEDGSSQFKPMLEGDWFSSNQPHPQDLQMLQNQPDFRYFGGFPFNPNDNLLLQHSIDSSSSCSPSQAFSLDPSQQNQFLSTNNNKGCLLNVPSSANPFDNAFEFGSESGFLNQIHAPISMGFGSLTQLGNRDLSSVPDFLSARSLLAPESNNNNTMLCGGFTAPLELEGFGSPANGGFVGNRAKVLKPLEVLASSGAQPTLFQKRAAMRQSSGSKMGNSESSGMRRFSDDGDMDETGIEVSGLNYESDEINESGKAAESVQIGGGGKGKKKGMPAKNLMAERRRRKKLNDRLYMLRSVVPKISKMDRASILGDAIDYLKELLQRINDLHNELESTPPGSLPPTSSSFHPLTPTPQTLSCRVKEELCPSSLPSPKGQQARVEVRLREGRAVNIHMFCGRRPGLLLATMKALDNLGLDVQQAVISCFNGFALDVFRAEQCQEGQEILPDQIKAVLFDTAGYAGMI

[4] = molecular target: T5, full-length AIF2 (AIF2FL) of the yeast test against ICE1 proteins and BIN2-pGADT7 (Fig. 4C) (Arabidopsis thaliana) (UniProt Q9C8Z9); experiment: as above
T5 sequence: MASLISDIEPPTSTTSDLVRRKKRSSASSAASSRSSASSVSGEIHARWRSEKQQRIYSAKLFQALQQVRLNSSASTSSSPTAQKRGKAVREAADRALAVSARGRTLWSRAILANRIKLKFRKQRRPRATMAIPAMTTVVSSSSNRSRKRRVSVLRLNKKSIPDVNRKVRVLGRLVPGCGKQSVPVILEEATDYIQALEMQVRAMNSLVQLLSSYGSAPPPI

B1: AIF2FL-nYFP (natural protein, Arabidopsis thaliana, UniProt Q9C8Z9 1-221, looked up)
chain: MASLISDIEPPTSTTSDLVRRKKRSSASSAASSRSSASSVSGEIHARWRSEKQQRIYSAKLFQALQQVRLNSSASTSSSPTAQKRGKAVREAADRALAVSARGRTLWSRAILANRIKLKFRKQRRPRATMAIPAMTTVVSSSSNRSRKRRVSVLRLNKKSIPDVNRKVRVLGRLVPGCGKQSVPVILEEATDYIQALEMQVRAMNSLVQLLSSYGSAPPPI
binding (ICE1FL-myc): binds
binding [1]: binds
binding [2]: binds

B2: full-length AIF2 in pGADT7 (AIF2FL) (protein, UniProt Q9C8Z9 1-221)
chain: MASLISDIEPPTSTTSDLVRRKKRSSASSAASSRSSASSVSGEIHARWRSEKQQRIYSAKLFQALQQVRLNSSASTSSSPTAQKRGKAVREAADRALAVSARGRTLWSRAILANRIKLKFRKQRRPRATMAIPAMTTVVSSSSNRSRKRRVSVLRLNKKSIPDVNRKVRVLGRLVPGCGKQSVPVILEEATDYIQALEMQVRAMNSLVQLLSSYGSAPPPI
binding [3]: binds

B3: full-length ICE1 (ICE1FL) of the yeast test against AIF2FL (Fig. 4C) (protein, UniProt Q9LSE2 1-494)
chain: MGLDGNNGGGVWLNGGGGEREENEEGSWGRNQEDGSSQFKPMLEGDWFSSNQPHPQDLQMLQNQPDFRYFGGFPFNPNDNLLLQHSIDSSSSCSPSQAFSLDPSQQNQFLSTNNNKGCLLNVPSSANPFDNAFEFGSESGFLNQIHAPISMGFGSLTQLGNRDLSSVPDFLSARSLLAPESNNNNTMLCGGFTAPLELEGFGSPANGGFVGNRAKVLKPLEVLASSGAQPTLFQKRAAMRQSSGSKMGNSESSGMRRFSDDGDMDETGIEVSGLNYESDEINESGKAAESVQIGGGGKGKKKGMPAKNLMAERRRRKKLNDRLYMLRSVVPKISKMDRASILGDAIDYLKELLQRINDLHNELESTPPGSLPPTSSSFHPLTPTPQTLSCRVKEELCPSSLPSPKGQQARVEVRLREGRAVNIHMFCGRRPGLLLATMKALDNLGLDVQQAVISCFNGFALDVFRAEQCQEGQEILPDQIKAVLFDTAGYAGMI
binding [4]: binds
